# Experimental data as given in patent publication US9415103B2, “Combination therapy to prevent DCIS formation and progression to breast cancer” (Yeda Research and Development Co. Ltd., priority 2011, dated 2016).
# At least one compound was matched to its structure with a doubt left.
# Tested on: MCF10A-HER2 spheroids
# Assay: Morphogenesis assay in Matrigel: luminal filling and cleaved Caspase-3 staining by confocal microscopy
# Assay type: cell-based, human
# Settings: spheroids grown 4 days, then 10058-F4 1 μM, FIG. 4G
structure (smiles),measurement,setting,value
O=c1cc(N2CCOCC2)oc2c(-c3ccccc3)cccc12 [LY-294002],luminal filling,"LY-294002 2 μM or U0126 1 μM for up to 4 additional days, day 8",significant inhibition
same,Caspase-3 activation,"LY-294002 2 μM or U0126 1 μM, imaged on day 6",markedly enhanced
